# Source: the supplement of paper PMC6411743
# ± gives the standard deviation of the averaged measurements. Some of the results follow.
# Columns and labels:
# Test in all cases: NP40-soluble protein abundance relative to vehicle (solubility fold change) (ratio); higher = more soluble protein in presence of GTP
# [1] = biological target: T1, H0Y2Y8 and related entries (UniProt Q15942)
# T1 sequence (whole entry): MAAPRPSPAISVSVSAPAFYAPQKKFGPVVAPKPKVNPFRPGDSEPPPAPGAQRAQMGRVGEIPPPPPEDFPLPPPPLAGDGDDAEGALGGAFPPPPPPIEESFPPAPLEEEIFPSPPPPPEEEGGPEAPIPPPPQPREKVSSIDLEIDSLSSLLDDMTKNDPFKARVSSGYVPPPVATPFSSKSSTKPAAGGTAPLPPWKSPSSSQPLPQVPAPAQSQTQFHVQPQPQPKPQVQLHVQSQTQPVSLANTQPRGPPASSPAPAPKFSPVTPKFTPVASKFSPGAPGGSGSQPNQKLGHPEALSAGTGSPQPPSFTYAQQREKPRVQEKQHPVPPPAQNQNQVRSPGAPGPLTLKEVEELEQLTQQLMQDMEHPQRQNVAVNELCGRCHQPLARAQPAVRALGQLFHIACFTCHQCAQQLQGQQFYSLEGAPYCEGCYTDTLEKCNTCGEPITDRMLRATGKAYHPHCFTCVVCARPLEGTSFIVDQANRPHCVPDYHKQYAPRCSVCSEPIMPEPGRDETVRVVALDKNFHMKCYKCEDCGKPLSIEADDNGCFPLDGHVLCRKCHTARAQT
# Method in brief: (§1)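 Jurkat crude lysate (Dounce-homogenised) was treated with eight concentrations from 0.1 to 10 mM for 10 min at room temperature, then 3 min at 37 °C. It was solubilised with 0.8% NP40 and benzonase (60 min, 4 °C) and ultracentrifuged, and the supernatant was TMT-labelled for LC-MS/MS. Intensities were vsn-normalised, and the value is the fold change against the NP40-processed vehicle per replicate, from three independent experiments.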
# [2] = biological target: T2, H0Y4R2 and related entries (UniProt P16435)
# T2 sequence (whole entry): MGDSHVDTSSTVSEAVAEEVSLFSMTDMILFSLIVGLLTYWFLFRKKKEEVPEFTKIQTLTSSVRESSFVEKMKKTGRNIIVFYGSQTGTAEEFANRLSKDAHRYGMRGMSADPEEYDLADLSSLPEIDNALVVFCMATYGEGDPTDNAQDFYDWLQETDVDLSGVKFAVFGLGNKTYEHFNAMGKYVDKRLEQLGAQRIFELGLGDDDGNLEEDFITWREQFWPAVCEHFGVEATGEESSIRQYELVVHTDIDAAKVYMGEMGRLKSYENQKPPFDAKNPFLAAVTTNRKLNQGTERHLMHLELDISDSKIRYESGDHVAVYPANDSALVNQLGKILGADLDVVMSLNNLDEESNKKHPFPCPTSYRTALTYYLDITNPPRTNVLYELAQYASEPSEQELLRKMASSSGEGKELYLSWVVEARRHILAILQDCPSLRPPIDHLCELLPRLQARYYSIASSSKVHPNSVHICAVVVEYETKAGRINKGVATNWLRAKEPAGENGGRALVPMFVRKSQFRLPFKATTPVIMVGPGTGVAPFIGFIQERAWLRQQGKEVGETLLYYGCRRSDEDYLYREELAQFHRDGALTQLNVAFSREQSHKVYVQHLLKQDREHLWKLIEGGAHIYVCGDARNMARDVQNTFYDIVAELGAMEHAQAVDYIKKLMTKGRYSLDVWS
# Method in brief: as §1
# [3] = biological target: T3, H0Y6I6 and related entries (UniProt Q96ME1)
# T3 sequence (whole entry): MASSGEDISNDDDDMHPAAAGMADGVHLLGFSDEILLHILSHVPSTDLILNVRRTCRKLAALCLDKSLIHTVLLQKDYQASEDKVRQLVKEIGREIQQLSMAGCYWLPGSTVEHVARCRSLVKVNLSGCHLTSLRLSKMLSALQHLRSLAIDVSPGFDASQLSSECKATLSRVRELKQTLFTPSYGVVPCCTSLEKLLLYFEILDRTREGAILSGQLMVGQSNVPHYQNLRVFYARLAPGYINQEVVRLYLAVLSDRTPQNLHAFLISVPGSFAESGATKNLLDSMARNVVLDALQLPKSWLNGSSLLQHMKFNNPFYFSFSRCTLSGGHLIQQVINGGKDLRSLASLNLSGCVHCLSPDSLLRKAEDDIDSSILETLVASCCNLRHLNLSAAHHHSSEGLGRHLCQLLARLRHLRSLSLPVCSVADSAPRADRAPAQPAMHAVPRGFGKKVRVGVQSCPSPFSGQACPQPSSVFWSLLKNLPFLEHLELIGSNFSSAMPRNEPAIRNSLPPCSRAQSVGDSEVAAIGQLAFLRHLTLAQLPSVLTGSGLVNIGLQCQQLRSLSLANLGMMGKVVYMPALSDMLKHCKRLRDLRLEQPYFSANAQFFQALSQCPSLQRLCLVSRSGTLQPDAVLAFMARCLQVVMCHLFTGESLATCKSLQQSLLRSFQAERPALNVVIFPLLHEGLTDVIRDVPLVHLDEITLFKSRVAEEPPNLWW
# Method in brief: as §1
# [4] = biological target: T4, H0YBI6 and related entries (UniProt Q86VQ6)
# T4 sequence (whole entry): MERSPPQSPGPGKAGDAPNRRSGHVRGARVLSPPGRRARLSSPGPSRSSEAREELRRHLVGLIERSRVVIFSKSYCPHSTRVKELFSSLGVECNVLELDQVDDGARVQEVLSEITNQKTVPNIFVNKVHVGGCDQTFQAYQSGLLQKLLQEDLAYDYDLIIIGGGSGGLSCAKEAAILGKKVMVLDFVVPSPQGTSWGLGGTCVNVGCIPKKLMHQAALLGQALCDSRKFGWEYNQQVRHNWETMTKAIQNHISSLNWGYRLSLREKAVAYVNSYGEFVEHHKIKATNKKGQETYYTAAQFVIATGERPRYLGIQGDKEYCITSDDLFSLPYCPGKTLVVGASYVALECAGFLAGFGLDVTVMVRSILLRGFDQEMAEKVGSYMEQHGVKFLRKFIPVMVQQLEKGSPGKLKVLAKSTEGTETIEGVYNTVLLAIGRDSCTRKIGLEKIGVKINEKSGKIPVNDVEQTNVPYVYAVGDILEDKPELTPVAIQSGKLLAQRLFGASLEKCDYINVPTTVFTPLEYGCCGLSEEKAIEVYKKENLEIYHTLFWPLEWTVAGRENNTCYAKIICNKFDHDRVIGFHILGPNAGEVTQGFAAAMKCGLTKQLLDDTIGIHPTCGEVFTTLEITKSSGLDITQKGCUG
# Method in brief: as §1
# [5] = biological target: T5, H0YMI4 and related entries (UniProt Q9Y6I4)
# T5 sequence (whole entry): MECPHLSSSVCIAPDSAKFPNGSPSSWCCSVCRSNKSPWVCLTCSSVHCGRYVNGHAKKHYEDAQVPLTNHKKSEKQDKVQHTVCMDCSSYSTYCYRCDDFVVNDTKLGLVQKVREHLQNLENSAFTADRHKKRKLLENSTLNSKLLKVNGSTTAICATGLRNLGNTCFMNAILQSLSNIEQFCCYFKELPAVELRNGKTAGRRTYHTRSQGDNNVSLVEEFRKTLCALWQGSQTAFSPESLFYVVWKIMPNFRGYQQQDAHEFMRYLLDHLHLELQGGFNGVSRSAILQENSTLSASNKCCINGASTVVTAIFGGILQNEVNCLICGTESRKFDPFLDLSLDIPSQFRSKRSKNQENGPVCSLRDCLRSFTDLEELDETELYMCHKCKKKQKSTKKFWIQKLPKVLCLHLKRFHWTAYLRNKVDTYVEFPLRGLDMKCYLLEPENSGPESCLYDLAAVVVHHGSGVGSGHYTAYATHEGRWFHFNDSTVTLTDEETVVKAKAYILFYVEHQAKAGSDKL
# Method in brief: as §1
# [6] = biological target: T6, H3BRB6 and related entries (UniProt Q8ND25)
# T6 sequence (whole entry): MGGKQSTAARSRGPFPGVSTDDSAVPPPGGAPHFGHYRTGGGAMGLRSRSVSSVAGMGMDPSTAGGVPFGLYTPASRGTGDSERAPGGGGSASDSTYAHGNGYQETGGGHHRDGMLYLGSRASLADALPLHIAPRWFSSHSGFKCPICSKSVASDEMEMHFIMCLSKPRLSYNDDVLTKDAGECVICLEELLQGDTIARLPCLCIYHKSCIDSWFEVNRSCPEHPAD
# Method in brief: as §1
smiles,measurement,setting,value
Nc1nc2c(ncn2[C@@H]2O[C@H](COP(=O)(O)OP(=O)(O)OP(=O)(O)O)[C@@H](O)[C@H]2O)c(=O)[nH]1 [guanosine triphosphate],NP40-soluble protein abundance,[1]; concentration: 0.1mM,0.956 ± 0.032
same,NP40-soluble protein abundance,[1]; concentration: 0.5mM,0.94 ± 0.068
same,NP40-soluble protein abundance,[1]; concentration: 1mM,0.983 ± 0.07
same,NP40-soluble protein abundance,[1]; concentration: 2mM,0.926 ± 0.1
same,NP40-soluble protein abundance,[1]; concentration: 4mM,0.923 ± 0.085
same,NP40-soluble protein abundance,[1]; concentration: 6mM,0.923 ± 0.1
same,NP40-soluble protein abundance,[1]; concentration: 8mM,0.935 ± 0.073
same,NP40-soluble protein abundance,[1]; concentration: 10mM,0.919 ± 0.072
same,NP40-soluble protein abundance,[2]; concentration: 0.1mM,0.9681 ± 0.0095
same,NP40-soluble protein abundance,[2]; concentration: 0.5mM,1.04 ± 0.035
same,NP40-soluble protein abundance,[2]; concentration: 1mM,0.907 ± 0.046
same,NP40-soluble protein abundance,[2]; concentration: 2mM,0.938 ± 0.014
same,NP40-soluble protein abundance,[2]; concentration: 4mM,0.912 ± 0.045
same,NP40-soluble protein abundance,[2]; concentration: 6mM,0.915 ± 0.021
same,NP40-soluble protein abundance,[2]; concentration: 8mM,0.89 ± 0.045
same,NP40-soluble protein abundance,[2]; concentration: 10mM,0.927 ± 0.046
same,NP40-soluble protein abundance,[3]; concentration: 0.1mM,1.07 ± 0.076
same,NP40-soluble protein abundance,[3]; concentration: 0.5mM,1.03 ± 0.044
same,NP40-soluble protein abundance,[3]; concentration: 1mM,0.919 ± 0.056
same,NP40-soluble protein abundance,[3]; concentration: 2mM,0.992 ± 0.057
same,NP40-soluble protein abundance,[3]; concentration: 4mM,0.951 ± 0.11
same,NP40-soluble protein abundance,[3]; concentration: 6mM,0.923 ± 0.086
same,NP40-soluble protein abundance,[3]; concentration: 8mM,0.928 ± 0.072
same,NP40-soluble protein abundance,[3]; concentration: 10mM,0.968 ± 0.059
same,NP40-soluble protein abundance,[4]; concentration: 0.1mM,1.11 ± 0.077
same,NP40-soluble protein abundance,[4]; concentration: 0.5mM,1.18 ± 0.19
same,NP40-soluble protein abundance,[4]; concentration: 1mM,1.1 ± 0.077
same,NP40-soluble protein abundance,[4]; concentration: 2mM,1.21 ± 0.2
same,NP40-soluble protein abundance,[4]; concentration: 4mM,1.26 ± 0.19
same,NP40-soluble protein abundance,[4]; concentration: 6mM,1.11 ± 0.26
same,NP40-soluble protein abundance,[4]; concentration: 8mM,1.11 ± 0.26
same,NP40-soluble protein abundance,[4]; concentration: 10mM,1.06 ± 0.17
same,NP40-soluble protein abundance,[5]; concentration: 0.1mM,1.1 ± 0.03
same,NP40-soluble protein abundance,[5]; concentration: 0.5mM,1.09 ± 0.061
same,NP40-soluble protein abundance,[5]; concentration: 1mM,1.07 ± 0.12
same,NP40-soluble protein abundance,[5]; concentration: 2mM,1.06 ± 0.071
same,NP40-soluble protein abundance,[5]; concentration: 4mM,1.07 ± 0.13
same,NP40-soluble protein abundance,[5]; concentration: 6mM,1.02 ± 0.081
same,NP40-soluble protein abundance,[5]; concentration: 8mM,1.02 ± 0.06
same,NP40-soluble protein abundance,[5]; concentration: 10mM,0.965 ± 0.069
same,NP40-soluble protein abundance,[6]; concentration: 0.1mM,0.978 ± 0.042
same,NP40-soluble protein abundance,[6]; concentration: 0.5mM,0.894 ± 0.011
same,NP40-soluble protein abundance,[6]; concentration: 1mM,0.965 ± 0.037
same,NP40-soluble protein abundance,[6]; concentration: 2mM,0.945 ± 0.045
same,NP40-soluble protein abundance,[6]; concentration: 4mM,0.917 ± 0.024
same,NP40-soluble protein abundance,[6]; concentration: 6mM,0.916 ± 0.038
same,NP40-soluble protein abundance,[6]; concentration: 8mM,0.901 ± 0.056
same,NP40-soluble protein abundance,[6]; concentration: 10mM,0.894 ± 0.038

# A second format for some results above:
smiles	measurement	setting	value
Nc1nc2c(ncn2[C@@H]2O[C@H](COP(=O)(O)OP(=O)(O)OP(=O)(O)O)[C@@H](O)[C@H]2O)c(=O)[nH]1 [guanosine triphosphate]	NP40-soluble protein abundance	[4]; concentration: 0.5mM	1.18 ± 0.19
same	NP40-soluble protein abundance	[4]; concentration: 1mM	1.1 ± 0.077
